Among all 52,000 sequences or so, about 210 (0.4%) were called active.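 How the source made its calls: active means gene whose silencing raises cell survival under the drug, median off-target-corrected z-score across its silencing RNAs 2 or more; inactive means the rest.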 The list shows a part of the results.
assay: Resistance to Poly (ADP-Ribose) Polymerase inhibitor: Gene Identification via Genome-wide siRNA Screen; conditions: mouse BRCA2 R2336H ES cells, olaparib, CellTiter-Glo viability; hits give high values
Summary of the method: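 Genome-wide siRNA screen (3 siRNAs/gene, 20 nM) in mouse ES cells carrying hypomorphic BRCA2 R2336H; olaparib 500 nM added 48 h post-transfection, CellTiter-Glo viability 72 h later. Normalized to plate-median negative control; MAD z-scores, gene median, seed-adjusted.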

Sequence	z-score
GGCCUGUUUUGUGAACUGCTT against Timm8a	inactive: 0.0999
GGGAUUUUUGAAACUGAAGTT against 2700085E05Rik	inactive: -0.791
GCCUGAUAUCAACAUAGGATT against Pthr2	inactive: 0.11
GGACCAGAACCGUUACUUATT against Bet1l	inactive: 1
GGCUAGGACCUAUACCAUUTT against Aprt	inactive: 1.26
CCUUCUUGCUUCAGAGCAGTT against Slc34a3	inactive: 1.85
GGAUGAAGCAUUUAUUCCATT against Bmpr1a	inactive: 1.1
GGCAAUUUGCUGUUUCAUATT against Siat7e	inactive: 0.037
GGGAAUCUGGCCAUACUAGTT against 1700022I11Rik	inactive: -1.1
CCUUUUGUUAGUGAGUUAGTT against Ywhag	inactive: -0.0098
CCAUCUGGACUUCAGUUUUTT against Garnl4	inactive: -0.0858
GCAACACACUGCUUCCUGGTT against Tmem19	inactive: 0.396
GGCUGUUUACACGUUAGUGTT against Diablo	inactive: -0.14
GGCCUUUUACUGUUCUGUGTT against 6820416H06Rik	inactive: -0.607
GCCUGUUAUUCAACAUUCUTT against Diap2	inactive: 0.214
GCUUAGACAACGACAUUUCTT against Mcoln3	inactive: 0.243
GGAGAGAGAAUUUCACCUCTT against Wdr40a	inactive: 1.32
GGCGGAAGAGAAAGACAGCTT against Tle3	inactive: -0.998
GGUAUUAUGGCUGUGGUCUTT against As3mt	inactive: 1.67
GCUUUAGGUCCAAUAAAAUTT against Wdr53	inactive: -0.146
GCAACUCUAGUGUAUGGGATT against Slc39a4	inactive: -1.38
GGGUUUUCAAAGACAAGAUTT against 4930488L10Rik	inactive: 0.786
CCCUUAAAGGGUAGCAUUUTT against Cspg3	inactive: -0.307
GGCAAUGAAUUUAACAAUCTT against C330011K17Rik	inactive: 0.654
GCCCGAAAAAGAGAACUGATT against Wbp11	inactive: -2.08
GCUUGGCUUCAGCAUAUGCTT against Phox2b	inactive: -0.611

Sequence	z-score
GGUGGAAUUUUCAACUUACTT against Nkx3-1	inactive: 0.268
GCCAGUUGAAGGUGAUUAATT against V1rc12	inactive: -1.69
GGAUCCAGUCUAAUAAGAATT against Abcb1a	inactive: -0.9
GGGAGCUUUGAAGAGGCUGTT against Olfr130	inactive: -1.11
GGUAUCAUCUAUAGAGACUTT against Prkch	inactive: 1.86
CUUUGUCAGCCAUGUAUCCTT against Tas2r104	inactive: 0.183
CCAGAUUCUAAUACGUACATT against Sec63	inactive: 0.369
GGCUAAAAUAAAGAAGAAGTT against C230069K22Rik	inactive: -1.06
GGACAAGGCAGUGUUUCCATT against Sost	inactive: -1.31
GGGAGCAGAUUUUAAGAGUTT against Rala	inactive: -0.796
CCAGUGUUUACUCAAACAGTT against Snai2	inactive: -0.0271
GCUUUUGACGAGCAAGCAGTT against 6820428D13	inactive: 0.0297
GGGUGACCCAGAAGAAAUCTT against Gcnt1	inactive: 2.01
GCCUCAUCGUCAUCGCCAATT against Gpbar1	inactive: 2.66
GGCUCUAUAUCCAGCAGCATT against Srst	inactive: 0.104
CCUGGAUUUUUCCAAACAATT against 2310016E02Rik	inactive: -0.791
CGAACAUGUACAACAAAGATT against Cacna2d3	inactive: -0.0599
GCCAUCAACCAAAACAUCCTT against MGC118250	inactive: 1.2
GGUGACAGAUGUUUAUGAGTT against 1810010N17Rik	inactive: 0.414
GGCGGAAAAAAAAGUAAUATT against Zf	inactive: -1.08
GAUCCAGGAUAAAGAGGGCTT against Ubb	inactive: -2.05
GGAUUCACGUAAGAUUGACTT against Prlpb	inactive: 1.33
GGACCUGAUCUUCAGGUUUTT against Gpc5	inactive: -0.698
GGUUGAUGUGCUACAAGUCTT against 9130221D24Rik	inactive: -0.351
GCAUGAACGACCCGCUGAATT against 2610014F08Rik	inactive: 2.11
GGAAGAAGUCUGGAGGAUGTT against 1010001D01Rik	inactive: 1.06

Reprinted from above for reference:
Sequence	z-score
GGUGACAGAUGUUUAUGAGTT against 1810010N17Rik	inactive: 0.414
GGCGGAAAAAAAAGUAAUATT against Zf	inactive: -1.08
GAUCCAGGAUAAAGAGGGCTT against Ubb	inactive: -2.05
GGAUUCACGUAAGAUUGACTT against Prlpb	inactive: 1.33
GGACCUGAUCUUCAGGUUUTT against Gpc5	inactive: -0.698
GGUUGAUGUGCUACAAGUCTT against 9130221D24Rik	inactive: -0.351

Later entries

Sequence	z-score
GGGAUAUCAAAGCAAAAAUTT against Rab8a	inactive: 1.14
CGUGACGUAUCUGUGGUCATT against Siat8d	inactive: 0.531
GGCCAGACACCAACAGAAATT against Adam23	inactive: 0.465
GCCUAUCUACUGACCUUUGTT against 1700011C14Rik	inactive: 0.252
GGAGUCCUUUCGUUCUAUCTT against Rab2	inactive: -0.369
GGUACUGGACCAAAUUGCUTT against Ppp1r15b	inactive: -0.689
GGAAUUCCAUUUUCAGAAATT against 4932412H11Rik	inactive: -0.324
GGACAGGAGAGUUAUUUAATT against Btla	inactive: 0.673
GGAUGCUGUUUCCAAAGAATT against Ssr3	inactive: 0.153
GCCACUAAGAAUCAGACAUTT against Ryr1	inactive: 0.856
GGCUUUUGAUCUUAUUGAGTT against Kpna1	inactive: -0.222
CCUCAAUGGUAGGUAAUUUTT against Olfr1090	inactive: -1.99
GCUCAAGUUAAUCUGUUGUTT against Ywhae	inactive: -0.698
GCUUGAAUACCAUCAGUCATT against BC060737	inactive: -1.43
GCUUACAGCACAACAACAUTT against Ubap1	inactive: -1.61
CCGCACAGACCAUAGUAGATT against 1700121L12Rik	inactive: 0.0169
CCUGACCAUACUAAUAAAUTT against Rala	inactive: 2.13
GGGUCUAGCAGAUUACAAATT against Gjb6	inactive: 0.0867
GGGAAUUUGGUAUCAAUUUTT against Epgn	inactive: 2.77
GGCAGGCAAACAGUGAUCATT against Lsm4	inactive: -2.56
GCUUAGUAAUGCUAACAUUTT against Parg	inactive: 2.29
GGCACUACCACAAGUAUAGTT against 1700073E17Rik	inactive: -1.94
CGAGGCCUGGAAGGACUUUTT against Klhl8	inactive: -0.511
GUUUCAAAUCCCAGAGAAGTT against Defb7	inactive: 0.17
CCUACAUCAAUAGGAGUUUTT against 2810457I06Rik	inactive: 1.92
GGGUCAAAGUCAGACUAUGTT against 2610019P18Rik	inactive: 0.639

Sequence	z-score
CCAUAGUUGAUGGAAGAUATT against 3110001K24Rik	inactive: 0.409
GCAGACGGUGGCAUAUUCUTT against Rfx4	inactive: -0.0759
GGUCAGACAGAGUCACUGATT against Magea2	inactive: -0.918
GCUUGUUACAGAUGAAUGUTT against Nt5c3	inactive: -0.242
CCCUGAAACCUGAUCGGAATT against 1110025F24Rik	inactive: -0.559
GGUUGCAUCACAGCGUAUATT against Plekhe1	inactive: 0.0124
GGCUCUCAACUAAAGCAGCTT against Ssfa1	inactive: -2.89
GGAGGAAAAUCAGACAGGATT against Olfr1419	inactive: 0.702
GGGUUUGGAAACUACAUUUTT against Phka2	inactive: 0.646
GGUAUAUUGUGCCAGCACATT against Olfr705	inactive: 0.931
GGCAGUUUUGCAUGUGUGATT against 1600021C16Rik	inactive: -1.13
UGUUACUGGACUCUCCACATT against Olfr320	inactive: -1.3
GCCCUAGAUCAGGAGAUCATT against Rps17	inactive: -2.58
GGACCACUCGCUUUUGGGUTT against 6430527G18Rik	inactive: 0.813
GGACUUAGGUUUGUUUAAATT against Frat1	inactive: 0.466
GGAGGAAACUAUUAUGACATT against BC043118	inactive: 0.211
GGAAUUGUGCUGAAAAAGATT against 9130011J15Rik	inactive: -0.135
CCACCUCAAGUCAAAGACUTT against Cggbp1	inactive: -0.394
CCUUGAUACCUUUCCAUGUTT against 9130008F23Rik	inactive: 2.13
GCUACGUUCAGUUCCAUUGTT against LOC219026	inactive: -0.543
CGAACUGAAGGUUUUCAAUTT against D2Ertd750e	inactive: -0.917
GGUCGUCGUGAGAUCUUAUTT against Gpr10	inactive: -0.402
GGACCAAACGAUUUCUCACTT against Olfr284	inactive: 0.047
UGUUGUUUUACCUGUGCCUTT against LOC330776	inactive: 1.32
GCCUUAAUUUAUCCGAAAGTT against 2810413I22Rik	inactive: 2.34

Reference: PubChem BioAssay AID1347423 (Functional Genomics Laboratory (NCATS/FGL), 2020)
